Measurements from paper PMC8005036 (Vaccines, 2021).
Results are given in words; binding and its absence hold for the method and conditions named. Some binding calls cover weakened binding; strength is not graded here. Where a sequence is shown, tags or fusion partners need not be part of it.

Biological target: E2-SpyTag (Geobacillus stearothermophilus E2 multimeric protein scaffold particle with SpyTag) (Geobacillus stearothermophilus)
Experiment: negative-stain transmission elect; both purified

- binding: binds
B1: E2-SpyTag (Geobacillus stearothermophilus E2 multimeric protein scaffold particle with SpyTag) (protein)
chain: MAHIVMVDAYKPTKAAAEEKAAPAAAKPATTEGEFPETREKMSGIRRAIAKAMVHSKHTAPHVTLMDEADVTKLVAHRKKFKAIAAEKGIKLTFLPYVVKALVSALREYPVLNTSIDDETEEIIQKHYYNIGIAADTDRGLLVPVIKHADRKPIFALAQEINELAEKARDGKLTPGEMKGASCTITNIGSAGGQWFTPVINHPEVAILGIGRIAEKPIVRDGEIVAAPMLALSLSFDHRMIDGATAQKALNHIKRLLSDPELLLMEA
